We go through one molecule from US20210230266A1.

No constants are given. Whether binding was seen depends on the method and setting. Some entries that bind do so weakly or less than the wild type.

One experiment deals with T1, Human IL-11 (human) (UniProt P20809).
T1 sequence: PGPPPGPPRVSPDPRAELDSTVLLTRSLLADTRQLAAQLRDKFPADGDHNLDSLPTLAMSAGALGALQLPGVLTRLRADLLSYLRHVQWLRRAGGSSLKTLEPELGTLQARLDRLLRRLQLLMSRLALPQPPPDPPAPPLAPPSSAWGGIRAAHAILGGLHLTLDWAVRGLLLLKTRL
In words: SPR, BIAcore T200. On the technique in general: SPR reads the build-up and loss of mass on a sensor chip optically.

A further experiment deals with T2, Mouse IL-11 (mouse) (UniProt P47873).
T2 sequence (looked up): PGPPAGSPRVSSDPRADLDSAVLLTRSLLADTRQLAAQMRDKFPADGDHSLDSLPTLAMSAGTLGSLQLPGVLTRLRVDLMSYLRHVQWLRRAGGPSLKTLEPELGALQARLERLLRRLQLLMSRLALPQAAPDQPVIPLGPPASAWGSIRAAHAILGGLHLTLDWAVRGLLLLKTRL
Nature of the experiment: SPR, BIAcore T200.

B1: BSN-3C6 (antibody, V domains shown)
VH: EVQLQQSGPELVKPGASVKIPCKASGYTFTDYNMDWVKQSHGKSLEWIGDINPHNGGPIYNQKFTGKATLTVDKSSSTAYMELRSLTSEDTAVYYCARGELGHWYFDVWGTGTTVTVSS
VL: DIVLTQSPASLAVSLGQRATISCRASKSVSTSGYSYIHWYQQKPGQPPKLLIYLASNLDSGVPARFSGSGSGTDFTLNIHPVEEEDAATYYCQHSRDLPPTFGGGTKLEIK
With B1, the binding result in the experiment with Human IL-11 (human) and with Mouse IL-11 (mouse) was “binds” each time.
